Measurements from PubChem BioAssay AID1671190 (National Center for Advancing Translational Sciences (NCATS), 2021).
Values joined by “and” are separate entries in the source; they are usually repeats but may differ in a detail not shown here. Equal values may be shown once. In all, about 580,000 compounds went through this assay and about 6,100 (1.1%) were called active. The shares of active, inactive and inconclusive entries below differ from those in the screen. Calls come from the whole dose curve; as a rule, active = well fitted inhibition curve with a large enough effect; inconclusive = small, poorly fitted or top-dose-only effect, or another doubt; inactive = no such curve, though single readings can be large or run the other way. A potency beside an inconclusive call is a rough fit, not a confirmed value.

By UniProt entry, the sequences of proteins in these tests, tags left out. Where a name states a change or a piece, a line headed by the entry shows the natural chain unless it says otherwise.
UniProt P18054: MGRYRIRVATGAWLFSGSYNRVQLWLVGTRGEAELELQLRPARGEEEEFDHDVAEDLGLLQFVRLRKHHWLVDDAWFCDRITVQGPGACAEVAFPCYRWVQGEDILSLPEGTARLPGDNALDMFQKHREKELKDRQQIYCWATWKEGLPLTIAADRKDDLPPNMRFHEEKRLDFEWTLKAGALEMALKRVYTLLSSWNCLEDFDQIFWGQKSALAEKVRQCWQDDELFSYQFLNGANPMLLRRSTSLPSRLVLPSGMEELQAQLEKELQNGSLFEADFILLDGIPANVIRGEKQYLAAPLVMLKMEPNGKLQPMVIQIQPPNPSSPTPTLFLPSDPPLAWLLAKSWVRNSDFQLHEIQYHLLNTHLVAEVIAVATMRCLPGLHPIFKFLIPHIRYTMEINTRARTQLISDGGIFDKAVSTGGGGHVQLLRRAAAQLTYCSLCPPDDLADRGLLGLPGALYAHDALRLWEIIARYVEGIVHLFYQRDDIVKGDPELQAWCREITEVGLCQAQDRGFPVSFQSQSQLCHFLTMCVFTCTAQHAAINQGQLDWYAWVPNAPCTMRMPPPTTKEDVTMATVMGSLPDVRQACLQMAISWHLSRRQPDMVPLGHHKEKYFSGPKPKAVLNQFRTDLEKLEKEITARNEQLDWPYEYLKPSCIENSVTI

These molecules were tested against Polyunsaturated fatty acid lipoxygenase ALOX12 (Homo sapiens) (UniProt P18054) (assay: Primary qHTS assay for inhibitors of human arachidonate 12S-lipoxygenase (ALOX12): Round 2). Details: purified 12hLO, xylenol orange hydroperoxide absorbance; activity change, negative = inhibition: at 108 µM (top of the series) unless noted.
Method in brief: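 Purified human 12hLO at 150 nM in 25 mM Hepes, 0.01% Triton X-100, pH 7.0, preincubated 15 min at room temperature with compound. Reaction started with 40 uM arachidonic acid, 30 min at room temperature. Hydroperoxide measured by Fe-xylenol orange, 573/405 nm absorbance ratio.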
% is set by controls: 0 for no effect and ±100 for the full control effect; potency is the fitted concentration of half-maximal effect.

SMILES	Potency	activity change, negative = inhibition
Cc1cc(C)cc(OCC(=O)OCC(=O)c2ccc3c(c2)OCO3)c1	inconclusive: 0.501 µM [inhibitor, full curve, poor fit]	–
Cc1[nH]n(-c2ccc([N+](=O)[O-])cc2)c(=O)c1C=NCCN1CCN(C(=O)c2ccc(Br)cc2)CC1	–	inactive: 14.8%
COc1ccc(C(N)c2csc(NC(=O)Nc3cccc(C(F)(F)F)c3)n2)cc1 (stereo not drawn)	inconclusive: 79.4 µM [inhibitor, partial curve, poor fit]	–
O=C(CSc1nnc(CNc2ccc(F)cc2)n1CC1CCCO1)Nc1ccccc1 (stereo not drawn)	–	inactive: -12.1%
COc1cc(NC(=O)Cn2c(-c3ccc(F)cc3)nc(C)c(CCO)c2=O)cc(OC)c1	inconclusive: 12.6 µM [inhibitor, full curve, poor fit]	–
Cc1nc2ccc(NC(=O)CSc3nnc(C)s3)cc2[nH]1	–	inactive: -25.9%
O=[N+]([O-])c1ccc(N/N=C2/CCCCC2c2ccccn2)cc1 (stereo not drawn)	inconclusive: 15.8 µM [inhibitor, partial curve, poor fit]	–
CCCc1cc(C(=O)Nc2cnn(Cc3ccccc3C)c2)no1	inconclusive: 4.47 µM [inhibitor, full curve, poor fit]	–
Cc1ccc(-c2n[nH]c(-c3ccc(C)c(C)c3)c2C)cc1C	–	inactive: -46.3%
COC(=O)c1c(C)[nH]c(C(=O)OCC(=O)Nc2ccc(Cl)cn2)c1C	inconclusive: 50.1 µM [inhibitor, single point]	–
N#Cc1nc(-c2ccc(F)cc2)oc1NCc1ccco1	inconclusive: 15.8 µM [inhibitor, single point]	–
CNc1nc(-c2ccc3c(c2)CCC(=O)N3)cs1	inconclusive: 39.8 µM [inhibitor, partial curve, poor fit]	–
N=c1oc2cc(O)ccc2cc1C(=O)Nc1ccc(Br)cc1	inconclusive: 39.8 µM [inhibitor, partial curve]	–
C[S+](=O)([O-])c1ccc(-c2cnc3n[nH]c(-c4ccc5c(c4)OCO5)c3n2)cc1	inconclusive: 39.8 µM [inhibitor, full curve, poor fit]	–
CCOC(=O)c1cncc(C(=O)O)c1	inconclusive: 44.7 µM [inhibitor, partial curve, poor fit]	–
O=C(Nc1ccc2c(c1)OCCO2)N1CCC(Cc2nc(-c3ccncc3)n[nH]2)C1 (stereo not drawn)	–	inactive: 51.8%
COCCOC(=O)c1c(C)n(C)c2ccc(O)cc12	–	inactive: -6.9%
Cc1ccc(Nc2nnc(SCC(=O)c3cc4ccccc4o3)s2)cc1C	inconclusive: 11.2 µM [inhibitor, full curve]	–
COCC1CCN(C(=O)c2cc(COc3ccc4c(c3)CCCC4)on2)C1 (stereo not drawn)	–	inactive: -5.19%
Cc1cc(O)c(CN2CCN(c3ccc(F)cc3)CC2)c2oc(=O)cc(C)c12	–	inactive: -9.13%
CC1N=C(SCC(=O)c2ccc(F)cc2)N2C(C)N=C(SCC(=O)c3ccc(F)cc3)N12 (stereo not drawn)	inconclusive: 11.2 µM [inhibitor, full curve, poor fit]	–

SMILES	Potency	activity change, negative = inhibition
CC(C)(C)N1C(=O)[C@H]2[C@@H](c3ccc(Br)cc3)N3C(=O)N(c4ccccc4)C(=O)[C@@]3(Cc3ccccc3)[C@H]2C1=O	–	inactive: 6.83%
COCCCn1c(=N)c(C(=O)NC2CCCC2)cc2c(=O)n3cc(C)ccc3nc21	inconclusive: 56.2 µM [inhibitor, partial curve, poor fit]	–
COc1ccc(CCCc2nnc(SCC(=O)Nc3ccc(Cl)cc3)o2)cc1	inconclusive: 50.1 µM [inhibitor, partial curve, poor fit]	–
O=C(C1=C(O)C(=O)N(CCCN2CCOCC2)C1c1ccccn1)c1cc2ccccc2o1 (stereo not drawn)	inconclusive: 0.199 µM [inhibitor, full curve, poor fit]	–
NS(=O)(=O)c1ccc(NC(=S)NC(=O)c2cccc(Br)c2)cc1	inconclusive: 44.7 µM [inhibitor, partial curve, poor fit]	–
O=C(CCCc1c[nH]c2ccccc12)Nc1ccc2ncccc2c1	inconclusive: 10 µM [inhibitor, partial curve, poor fit]	–
Cc1cc(C(F)(F)F)c(C#N)c(=S)[nH]1	active: 15.8 µM	–
Cc1[nH]c2ccccc2c1CN1CCc2ccccc2C1	inconclusive: 2.51 µM [inhibitor, full curve, poor fit]	–
COC(=O)C1=C(C)N(Cc2cccc(C(F)(F)F)c2)C(=NCc2ccc(C(F)(F)F)cc2)NC1c1cccc(C(F)(F)F)c1 (stereo not drawn)	inconclusive: 50.1 µM [inhibitor, partial curve, poor fit]	–
COc1cc(OC)c(OC)cc1CN1CCC(O)(CN2CCCC2)CC1	inconclusive: 100 µM [inhibitor, partial curve, poor fit]	–
COc1cc(C)ccc1OCC(=O)c1ccc2c(c1)N(CCCC(=O)NCC1CC1)C(=O)CO2	inconclusive: 112 µM [inhibitor, partial curve, poor fit]	–
O=S(=O)(NC(=S)NC1CCCCC1)c1ccc(Br)cc1	inconclusive: 5.62 µM [inhibitor, partial curve, poor fit]	–
CCN(C(=O)COC(=O)/C(=C/c1ccccc1)n1nnnc1C)C1CCCCC1	–	inactive: -24.9%
CC(=O)NCCC(=O)N1Cc2ccccc2CC2(CCCN2CC2CCNC2)C1 (stereo not drawn)	inconclusive: 7.94 µM [inhibitor, full curve]	–
CN(Cc1ccc(F)cc1)C(=O)c1cccc(S(=O)(=O)N2CCN(Cc3ccccc3)CC2)c1	inconclusive: 100 µM [inhibitor, single point]	–
CCc1ccc(CNC(=O)c2sc3ncnc(N(C)C4CCCCC4)c3c2C)cc1	–	inactive: -16.6%
Cc1cc(COc2ccc(C(=O)c3ccccc3)cc2)on1	–	inactive: 1.98%
CC(C)(C)c1ccc(OCC(=O)OCC(=O)Nc2sccc2C(N)=O)cc1	inconclusive: 50.1 µM [inhibitor, partial curve, poor fit]	–
CCc1ccc(N2C(=O)c3c(C(=O)OC)ncn3CC2(C)C(=O)NC2CCCCCC2)cc1 (stereo not drawn)	inconclusive: 39.8 µM [inhibitor, partial curve, poor fit]	–
Cc1nc(N2CCOCC2)[nH]c(=O)c1[N+](=O)[O-]	inconclusive: 50.1 µM [inhibitor, partial curve, poor fit]	–
Cc1ccc(-c2cc(C(F)F)n3nc(C)c(Br)c3n2)cc1	–	inactive: -26%

Entries shown so far that have a thiophene ring, fused or not, in the order listed:
SMILES	Potency	activity change, negative = inhibition
CCc1ccc(CNC(=O)c2sc3ncnc(N(C)C4CCCCC4)c3c2C)cc1	–	inactive: -16.6%
CC(C)(C)c1ccc(OCC(=O)OCC(=O)Nc2sccc2C(N)=O)cc1	inconclusive: 50.1 µM [inhibitor, partial curve, poor fit]	–

More entries follow:

SMILES	Potency	activity change, negative = inhibition
CC(C)(C)S(=O)N1Cc2cc(C(=O)NCc3ccc4c(c3)OCO4)nc(-c3cccc(-c4cc5ccccc5o4)c3)c2[C@@H]1CCO (stereo partly drawn)	inconclusive: 50.1 µM [inhibitor, partial curve, poor fit]	–
COc1ccc([C@@H]2Sc3cc(OC)ccc3N(CCN(C(C)C)C(C)C)C(=O)[C@H]2OC(C)=O)cc1	–	inactive: -26.6%
O=[N+]([O-])c1cc(S(=O)(=O)Nc2cccc(Cl)c2)ccc1N/N=C/c1cccc(F)c1	inconclusive: 11.2 µM [inhibitor, single point]	–
Cc1ccccc1CN1C(=O)C(O)(CC(=O)c2cccc(Br)c2)c2ccccc21 (stereo not drawn)	–	inactive: -5.55%
O=C(Cc1cccc2ccccc12)Nc1ccc(Br)cc1C(=O)O	inconclusive: 50.1 µM [inhibitor, partial curve, poor fit] and inconclusive: 126 µM [inhibitor, single point]	–
CCOC(=O)c1sc(NC(=O)Nc2ccccc2F)nc1C	–	inactive: 9.32%
N#CCCN(C(=O)CSc1nnnn1-c1cccc(Cl)c1)c1ccc(F)cc1	–	inactive: 1.94%
Cc1ccc(-c2nc(NCc3cccnc3)c3ccccc3n2)cc1	–	inactive: -5.88%
CS(=O)(=O)c1ccc(CN2CCN(c3ncc(F)cn3)CC2)cc1	inconclusive: 3.98 µM [inhibitor, full curve]	–
Cc1ccc(-n2c(C3CCN(C(=O)CCC4CCCC4)CC3)n[nH]c2=O)cc1	inconclusive: 15.8 µM [inhibitor, full curve]	–
CC(=O)NC(CC(=O)Nc1ccc(S(=O)(=O)N2CCCC2)cc1)c1ccccc1 (stereo not drawn)	inconclusive: 15.8 µM [inhibitor, partial curve, poor fit]	–
CC(C)(C)c1cc[n+](-c2[nH]c(=O)sc2/C=N/N=C(\[O-])c2cccnc2)cc1	–	inactive: 0.782%
O=C(c1cc(-c2ccc(Cl)cc2Cl)c2cccn2n1)N1CCCC1	inconclusive: 63.1 µM [inhibitor, partial curve, poor fit]	–
CCc1ccc2c(COC(=O)C3CC(=O)N(CCc4ccccc4)C3)cc(=O)oc2c1 (stereo not drawn)	inconclusive: 50.1 µM [inhibitor, partial curve, poor fit]	–
C[C@]12c3[nH]c4ccc(Cl)cc4c3CCN1C(=O)[C@@H](CC(=O)NCCC1=CCCCC1)C[C@@H]2C(=O)N1CCCCC1	inconclusive: 112 µM [inhibitor, single point]	–
Cc1ccc(C)c(CN2C(=O)c3ccccc3S(=O)c3ccc(C(=O)N(C)Cc4ccccc4)cc32)c1 (stereo not drawn)	inconclusive: 17.8 µM [inhibitor, partial curve, poor fit]	–
Cc1ccc(/C=C(\NC(=O)c2ccccc2)C(=O)NCC2CCCO2)o1 (stereo not drawn)	–	inactive: 8.31%
O=c1[nH]cc(F)c(=O)[nH]1	inconclusive: 22.4 µM [inhibitor, single point]	–
CC(C)C(C)NC(=O)COc1ncnc2ccccc12 (stereo not drawn)	inconclusive: 4.47 µM [inhibitor, full curve, poor fit]	–
CC1(CCCCN2CCOCC2)COc2ccc(C(=O)Nc3ccccc3)cc2N1 (stereo not drawn)	–	inactive: -6.25% [at 176 µM]
O=C(O)CCc1cc2n(n1)CCCN(C(=O)c1cc3c([nH]c1=O)CCC3)C2	inconclusive: 12.6 µM [inhibitor, full curve, poor fit]	–
